Where a name gives a salt, the structure may show the parent alone. The list shows a part of the results. Repeats in this data set agree poorly, so a single value says little.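 Human kidney-derived cells stably carry a construct in which eight TEAD-binding elements drive luciferase, measured by luminescence in a drug-repurposing library screen. A hit is any compound whose signal exceeds the plate mean by more than five robust Z scores.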
Test system: HEK293A TEAD-LUC reporter
Test: TEAD-luciferase reporter activity (YAP activation), robust Z score vs plate; higher = stronger YAP/TEAD activation
Conditions: 24 h

SMILES	TEAD-luciferase reporter activity (compound concentration: 200 nM)	TEAD-luciferase reporter activity (compound concentration: 2 uM)	TEAD-luciferase reporter activity (compound concentration: 10 uM)
CN1CCC(C(=O)O)(c2ccccc2)CC1	inactive: -0.381	inactive: -1.52	inactive: -1.41
CN[C@H](CC(C)C)C1(c2ccc(Cl)cc2)CCC1 [(R)-N,N-Desmethylsibutramine]	inactive: 0.185	inactive: -0.145	inactive: 0.488
CC(C)(C)NCC(O)c1ccccc1Cl (stereo not drawn) [tulobuterol (patch)]	inactive: 3.83	inactive: -0.424	inactive: -0.408
C=CCC1(C(C)CCC)C(=O)NC(=S)NC1=O (stereo not drawn) [Thiamylal]	inactive: -2.95		inactive: -1.52
Cc1ncsc1CCCl [clomethiazole]		inactive: -2	
Cc1ncsc1CCCl [clomethiazole, AstraZeneca]	inactive: -2.25		inactive: 4.16
O=C(Nc1ccc(Br)cc1)c1cc(Br)cc(Br)c1O	inactive: 2.09	inactive: -0.758	inactive: 2.27
O=c1[nH]c(N2CCNCC2)nc2ccccc12 [Centpiperalone]	inactive: -2.06	inactive: -2.4	inactive: -0.468
CC(C)(C)NCC(O)c1cc(Cl)c(N)c(Cl)c1 (stereo not drawn) [Clenbuterol]	inactive: -0.33		inactive: -0.346
CC(C)(C)NCC(O)c1cc(Cl)c(N)c(Cl)c1 (stereo not drawn) [clenbuterol]		inactive: 1.44	
CC/C=C\C/C=C\C/C=C\C/C=C\C/C=C\CCCC(=O)NCCNC(=O)c1cccnc1	active: 5.38	inactive: -0.503	inactive: -0.734
O=C(Cc1ccccc1)N1CCC(C(=O)O)(c2ccccc2)CC1	inactive: -1.44		inactive: 1.62
CN(C(=O)CNC(=O)CN)c1ccc(Cl)cc1C(=O)c1ccccc1Cl	inactive: -0.267	inactive: -1.3	inactive: 1.71
CN1C(=O)C(Cc2ccc3ccccc3c2)N=C(c2ccc(O)cc2)c2cc(Cl)ccc21 (stereo not drawn)	inactive: -1.89	inactive: -1.07	inactive: 0.893
CN1C(=O)CC(=O)N(c2ccccc2)c2cc(Cl)ccc21	inactive: -1	inactive: 0.841	inactive: 0.701
Cn1c2c(c3ccccc31)CCNCC2	inactive: 2.65	inactive: 0.518	inactive: 0.0774
CCCN(CCC)C1CCc2c(F)ccc(O)c2C1 (stereo not drawn)	inactive: 4.86	inactive: 2.79	inactive: -1.55
CCCCCCC(C)(C)c1cc(O)c2c(c1)OC(C)(C)[C@@H]1CC[C@@H](O)C[C@@H]21	inactive: 1.47	inactive: -0.842	inactive: -0.981
CC(C)[C@H](N)C(=O)N1CCC[C@H]1B(O)O [talabostat mesylate]	inactive: 3.82	inactive: -1.99	inactive: -1.27
CN1[C@@H]2CC[C@H]1C[C@@H](N1Cc3ccc4ccccc4c3C1=O)C2	inactive: -0.7	inactive: -1.43	inactive: -1.42

SMILES	TEAD-luciferase reporter activity (compound concentration: 200 nM)	TEAD-luciferase reporter activity (compound concentration: 2 uM)	TEAD-luciferase reporter activity (compound concentration: 10 uM)
O=C1C=CC[C@@H]2[C@H]3CCCN4CCC[C@@H](CN12)[C@@H]34 [Sophocarpine]	inactive: 0.684	inactive: -0.579	inactive: 0.882
CC12C=CC(=O)C=C1CCC1C2C(O)CC2(C)C(=O)CCC12 (stereo not drawn)	inactive: -2.49	inactive: -0.543	inactive: -1.24
Cn1cc(C2=NCC3(CN4CCC3CC4)O2)c2ccccc21 (stereo not drawn)	inactive: -1.15	inactive: 0.476	inactive: -0.673
c1ccc(C(Cc2noc(CCN3CCCCC3)n2)c2ccccc2)cc1	inactive: 0.704	inactive: 0.117	inactive: -0.988
O=C(O)CCCc1ccc(N(CCCl)CCCl)cc1 [chlorambucil]		inactive: -0.397	
O=C(O)CCCc1ccc(N(CCCl)CCCl)cc1	inactive: -1.35		inactive: -0.715
COc1ccc(C(O)CNC(C)Cc2ccccc2)cc1 (stereo not drawn)	inactive: 0.511	inactive: -1.57	active: 5.03
C[C@@H]1NC(C)(C)CO[C@@]1(O)c1cccc(Cl)c1 [Radafaxine hydrochloride]	active: 5.1	inactive: -1.54	inactive: 4.49
CC(C)(N)Cc1ccccc1 [Phentermine HCl]	inactive: 2.02		inactive: 1.24
O=c1cccc2n1C[C@@H]1CNC[C@H]2C1 [Cytisine]	inactive: 0.702	inactive: -0.353	inactive: -1.3
CCN(CC)CCN1C(=O)CN=C(c2ccccc2F)c2cc(Cl)ccc21 [Flurazepam]	inactive: 0.951	inactive: -0.0863	inactive: 0.975
O=[Se](=O)([O-])[O-] [Sodium selenate]	inactive: -2.43	inactive: -1.15	inactive: 2.16
C[C@H]1CC[C@@](c2ccccc2)(N2CCN(c3ccccc3)CC2)CC1	inactive: -0.0168	inactive: 0.285	inactive: -0.318
CC1CCCC(O)CCCCCc2cc(O)cc(O)c2C(=O)O1 (stereo not drawn)	inactive: 0.00694	inactive: -1.09	inactive: -0.464
CCCC(CCC)C(=O)OC1CC2CCC(C1)[N+]2(C)C(C)C (stereo not drawn) [Sintropium iodide]	inactive: -0.796	inactive: -0.576	inactive: 4.26
CCCCOC(=O)c1ccccc1OP1(=O)CO[C@H](Cn2ccc(N)nc2=O)CO1 (stereo partly drawn)	inactive: -2.01	inactive: -0.104	inactive: 1.12
O=C1OC(CCN2CCCCC2)OC1(c1ccccc1)c1ccccc1 (stereo not drawn) [Pipoxolan hydrochloride]	inactive: 0.123	inactive: -1.49	inactive: -1.42
C=C1CC[C@@]2(O)[C@H]3Cc4ccc(OC5O[C@H](C(=O)O)[C@@H](O)[C@H](O)[C@H]5O)c5c4[C@@]2(CCN3CC2CC2)[C@H]1O5 (stereo partly drawn) [nalmefene glucuronide]	inactive: 1.82	inactive: -2.31	inactive: 0.376
C#CCN[C@@H]1CCc2ccc(OC(=O)N(C)CC)cc21	inactive: -1.45	inactive: -0.45	inactive: 2
CN(C)CCc1ccccc1 [Dimethyl(2-phenylethyl)amine]	active: 7.28	inactive: 0.0587	inactive: -0.0199

Single entries from the list.
O=c1cccc2n1C[C@@H]1CNC[C@H]2C1 [Cytisine] | TEAD-luciferase reporter activity (compound concentration: 200 nM): inactive: 0.702
C=C1CC[C@@]2(O)[C@H]3Cc4ccc(OC5O[C@H](C(=O)O)[C@@H](O)[C@H](O)[C@H]5O)c5c4[C@@]2(CCN3CC2CC2)[C@H]1O5 (stereo partly drawn) [nalmefene glucuronide] | TEAD-luciferase reporter activity (compound concentration: 200 nM): inactive: 1.82
CCCCOC(=O)c1ccccc1OP1(=O)CO[C@H](Cn2ccc(N)nc2=O)CO1 (stereo partly drawn) | TEAD-luciferase reporter activity (compound concentration: 2 uM): inactive: -0.104

Reference: the supplement of paper PMC10735217
